# Experimental data as given in PMC7819943, “Rice protein-binding microarrays: a tool to detect cis-acting elements near promoter regions in rice”.
# Chains of the proteins cited; added tags and fusions are not shown.
# UniProt Q0JBA9, entry or part of it: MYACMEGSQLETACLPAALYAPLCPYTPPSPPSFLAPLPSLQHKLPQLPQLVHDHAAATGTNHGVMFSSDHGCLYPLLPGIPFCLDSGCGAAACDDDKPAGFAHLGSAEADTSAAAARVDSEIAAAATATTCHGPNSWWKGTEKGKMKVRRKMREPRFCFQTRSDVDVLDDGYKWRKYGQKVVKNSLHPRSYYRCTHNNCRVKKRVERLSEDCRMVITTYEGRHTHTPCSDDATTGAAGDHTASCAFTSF
# This is one part of the list.
# Biological target: OsWRKY34 (Oryza sativa, UniProt Q0JBA9 1-250)
# Assay: protein-binding microarray (RPBM); PBS, 2% BSA, 51.3 ng/ul salmon testes DNA, 50 uM zinc acetate, 200 nM TF, 25 C, 1 h; high values mean tight binding
# Details: protein: recombinant; tags: N-terminal polyhistidine and DsRed monomer fusion (pET32a); label: CyDye5-dUTP incorporated in the synthesized complementary strand; 3' TTTTT single-stranded linker to array surface; dsDNA, one strand shown
# Outline: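 An Axon 4000B scanner gave the binding signal as per-feature fluorescence intensity in arbitrary units. This followed washing of a custom Agilent array that had been incubated for 1 h at 25 °C with 200 nM protein in PBS, 2% BSA, salmon testes DNA and 50 µM zinc acetate. The proteins were transcription factors fused at the N-terminus to polyhistidine and DsRed, expressed in E. coli BL21-CodonPlus and purified on Ni–NTA.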
row,Sequence,binding signal
1,TTGGGTTTTACTTGCATAATTATTATTCAATTGCTTGATACGGAGTCACCTAGTGCAG,10500 fluorescence intensity (a.u.)
2,ACCGCCAGTTGCAAGTCCGTCCGCATACTTCAGCCGACATCGGAGTCACCTAGTGCAG,9840 fluorescence intensity (a.u.)
3,ATTCCATTTAAGTGACGGTATCGTAGCGTAGCCGGTTTTTCGGAGTCACCTAGTGCAG,8100 fluorescence intensity (a.u.)
4,ACACCTGGCGTCACGCCATTGGCTAGCACCCACTTTCCCGCGGAGTCACCTAGTGCAG,9770 fluorescence intensity (a.u.)
5,CCTCGATAGTTGTCTCCGTCATTAATAATTCTCGATTCACCGGAGTCACCTAGTGCAG,11200 fluorescence intensity (a.u.)
6,CATGTGCTAAAAAGTCAACGGTATCAAACATTTTTAAACGCGGAGTCACCTAGTGCAG,15800 fluorescence intensity (a.u.)
7,AACCTTCTATCCCACGGTAACAGCAGCAACACACATGTAACGGAGTCACCTAGTGCAG,9050 fluorescence intensity (a.u.)
8,CCTCGTCGCCGTGCTCGTCCTCGTCTACGTCCAGGAGAACCGGAGTCACCTAGTGCAG,8880 fluorescence intensity (a.u.)
9,TCACCTCGTCGACGTCATTCCATACGACTACGACTTTCAGCGGAGTCACCTAGTGCAG,8130 fluorescence intensity (a.u.)
10,CGTCCTTTTAATTCGTCGTCCAAACCAAACCCGCGCAAGCCGGAGTCACCTAGTGCAG,8040 fluorescence intensity (a.u.)
11,CAAATTGACACTACATCTAGCTAGCTAGCTAGCTTTGCTCCGGAGTCACCTAGTGCAG,8360 fluorescence intensity (a.u.)
12,ATCACCCCGCCTCCGCCTCCGCCGCTGGCTGCAGAGACACCGGAGTCACCTAGTGCAG,8200 fluorescence intensity (a.u.)
13,GGCGATACTTCTCTGCAGTACCTCCACACCGCCATGAGGACGGAGTCACCTAGTGCAG,9160 fluorescence intensity (a.u.)
14,AGATAGTTCTTGATATCCATGGACCATCATCAGCCATCTTCGGAGTCACCTAGTGCAG,9690 fluorescence intensity (a.u.)
15,TTCAGTTTGTTTCTATTAATATTGGTAGTTGTTTAATTTTCGGAGTCACCTAGTGCAG,10900 fluorescence intensity (a.u.)
16,CATACTCTATTGTCCTGTGCGGTTCATGCATGATTCATCTCGGAGTCACCTAGTGCAG,10100 fluorescence intensity (a.u.)
17,AAGTTGTACAAAAATTCGAGAATTAATTATAGGTCCTTTTCGGAGTCACCTAGTGCAG,8090 fluorescence intensity (a.u.)
18,TCCTACAAGTGGTATCAGAGCCTTGTTTTCTTCTTTGGATCGGAGTCACCTAGTGCAG,8620 fluorescence intensity (a.u.)
19,CCTCTCGCAACTAACCACGCCACGTATGCCGGGTCGCACCCGGAGTCACCTAGTGCAG,8040 fluorescence intensity (a.u.)
20,CCCAAAACCGATCCATTCATTCGCCAACCACGCCGTCCGCCGGAGTCACCTAGTGCAG,8790 fluorescence intensity (a.u.)
21,AATCGCCTATTGCTCCATGAATCACTCACTGAAAATGACTCGGAGTCACCTAGTGCAG,9250 fluorescence intensity (a.u.)

row,Sequence,binding signal
1,TCCAGCTCGATTGTCCGCTCCGAAATCCCCAACCTAGCACCGGAGTCACCTAGTGCAG,8460 fluorescence intensity (a.u.)
2,ACCTCTGCTCTATTAACTCTTGGCTACTCTCTCCTCTCTTCGGAGTCACCTAGTGCAG,9800 fluorescence intensity (a.u.)
3,CTACACGCATCATTCTTCCTCTTCCTCTTCTTAGGTCGCTCGGAGTCACCTAGTGCAG,10000 fluorescence intensity (a.u.)
4,AAGTTCATCTAAGGTCCCTTATCTTGTCGTTGAGTTTTAACGGAGTCACCTAGTGCAG,8670 fluorescence intensity (a.u.)
5,ATCGGGTCGGTCGCTTATCGTCTTCGCCTTCCGCCAGGAGCGGAGTCACCTAGTGCAG,11800 fluorescence intensity (a.u.)
6,TTCTTGCTCCAATCTCCTCTTGTTTTCTTGCTGGGAGTTGCGGAGTCACCTAGTGCAG,8560 fluorescence intensity (a.u.)
7,TAGTTTCTTCATTTTTATGATTTTATCCAATGCTATTTTTCGGAGTCACCTAGTGCAG,9440 fluorescence intensity (a.u.)
8,CCGATCCGACCCAACCATCTTCTTCCTCGCGTCGCCTCGCCGGAGTCACCTAGTGCAG,8420 fluorescence intensity (a.u.)
9,ACTTCGTCGTCTTCCTCTGCTGCTTCCTTCTCCTCCAAGCCGGAGTCACCTAGTGCAG,8250 fluorescence intensity (a.u.)
10,ATATCGAGTATTTCTCAGTTCTCACAATTTGGATTTCAGTCGGAGTCACCTAGTGCAG,8640 fluorescence intensity (a.u.)
11,TATGGTGCTCATTTCTCGAGGGATGTGATTTCAGTTTCAACGGAGTCACCTAGTGCAG,8430 fluorescence intensity (a.u.)
12,TCACAAGTCACCAAGACAACCGCACTTGCACTATCCGCATCGGAGTCACCTAGTGCAG,8040 fluorescence intensity (a.u.)
13,TACATGCAAACTGTACAATTATTTTTTTTCGTCCACATTTCGGAGTCACCTAGTGCAG,10400 fluorescence intensity (a.u.)
14,TCAAACGCGCCAATCCGACCGTTACCCACATTAAAAAAAACGGAGTCACCTAGTGCAG,8700 fluorescence intensity (a.u.)
15,TATATAGATACTGGCCATGTTTAGTTCGCTGTCCAATTTTCGGAGTCACCTAGTGCAG,11700 fluorescence intensity (a.u.)
16,TACTCCTCCTCATTGGCCAAATGGTCATCACTCTGTCTTCCGGAGTCACCTAGTGCAG,8350 fluorescence intensity (a.u.)
17,CCTCTAGGATTGTCGTGGCTATGGCATATCTCGTGTGTGACGGAGTCACCTAGTGCAG,8370 fluorescence intensity (a.u.)
18,AAAAGCACTATTCACCCCAAATTTGTCTTTTTTTTTCTCTCGGAGTCACCTAGTGCAG,8560 fluorescence intensity (a.u.)
19,TCTGCCACTGTCGTCGAGCTCGCATTCCGTTCCGCCATTGCGGAGTCACCTAGTGCAG,9430 fluorescence intensity (a.u.)
20,TTGGAGAGGCACATGCTGATGAGGCGGAGGAGGGGCGGCGCGGAGTCACCTAGTGCAG,9320 fluorescence intensity (a.u.)
21,CAATTTTGTCTTTTTGAAATTTCTCTATCCTCTTTTTATACGGAGTCACCTAGTGCAG,11900 fluorescence intensity (a.u.)

row,Sequence,binding signal
1,AGGGGTATTTTGGTCATTTCGACAAATTTGTACAGTACTACGGAGTCACCTAGTGCAG,10300 fluorescence intensity (a.u.)
2,ATTTTGTCATTTCGATTCACACTTGCGCTGTAGCCGAATTCGGAGTCACCTAGTGCAG,11200 fluorescence intensity (a.u.)
3,ACACGGGTGGGTAACAATTACATGGCTGAGAGCAGATGACCGGAGTCACCTAGTGCAG,9840 fluorescence intensity (a.u.)
4,CCTACGATCTACGGCCTTGTTTGGCAGTTCTGCTTGGTTTCGGAGTCACCTAGTGCAG,9980 fluorescence intensity (a.u.)
5,TGTTTCTGTCTGTCCACCCTGCTGCTGCTGCCTCGTTTGACGGAGTCACCTAGTGCAG,9640 fluorescence intensity (a.u.)
6,TTCTTTTGGCCCTTGCACACTCCTGAACCGCAGATTTCTACGGAGTCACCTAGTGCAG,11600 fluorescence intensity (a.u.)
7,ACTAATTCGCCTACGACTTCTCACACACAAAGCTTCCCTTCGGAGTCACCTAGTGCAG,8570 fluorescence intensity (a.u.)
8,CCTTGGGCCAATTCCATACCCTCATGTAAGCCCATTCACTCGGAGTCACCTAGTGCAG,9300 fluorescence intensity (a.u.)
9,TGGTGGTCGGCATCGTTGAGTGGTGTGGGATGAGAAGCGGCGGAGTCACCTAGTGCAG,9030 fluorescence intensity (a.u.)
10,CACTTACTGACGTAAACAGCAGAATATTTCCTGTGTATTGCGGAGTCACCTAGTGCAG,8160 fluorescence intensity (a.u.)
11,ACTGTCTCGTATTCTATTCCTCATTCCTTCTCTTTTTTTCCGGAGTCACCTAGTGCAG,19600 fluorescence intensity (a.u.)
12,ACACACGTCGTTATGTTGATTTTATTATATTTTTAAAAAACGGAGTCACCTAGTGCAG,8450 fluorescence intensity (a.u.)
13,TCTCCCATCTATCCTCTGTGCATTCCGCTTTACTGCTCTCCGGAGTCACCTAGTGCAG,8450 fluorescence intensity (a.u.)
14,CTCTGTTCCGTTCACTTTACGCATCTCAACCTATCGCTGTCGGAGTCACCTAGTGCAG,11900 fluorescence intensity (a.u.)
15,TTAGATCAATTTTGCATGTGTGTTGTTTTGTACTAGGTTCCGGAGTCACCTAGTGCAG,9600 fluorescence intensity (a.u.)
16,ACGCACTTGACCCCTTCGTTACCCTAAATCCTAATGCCGTCGGAGTCACCTAGTGCAG,8620 fluorescence intensity (a.u.)
17,GCGGGTGGGTGGCAGGGTGGGTATACGTACACGTCTCCGACGGAGTCACCTAGTGCAG,15800 fluorescence intensity (a.u.)
18,CTGTTACCATCCATGTTTCAATTCCTTAGCATGTCACCCTCGGAGTCACCTAGTGCAG,8110 fluorescence intensity (a.u.)
19,GCTCGTTGTCATGCTCTCCCATTCCATGGCTCCATCCATTCGGAGTCACCTAGTGCAG,12400 fluorescence intensity (a.u.)
20,GCCAATCTTCTTTGCAGTTTGCATTACCATGCAACTCACCCGGAGTCACCTAGTGCAG,8560 fluorescence intensity (a.u.)
21,ATATTACTGGTGTTTACTTGCTTTTCTTTTTTTAAAAAAACGGAGTCACCTAGTGCAG,9160 fluorescence intensity (a.u.)

row,Sequence,binding signal
1,CTTATCTTTCTTTATGTTGTTGCTACGAAGGTATAGACTTCGGAGTCACCTAGTGCAG,9340 fluorescence intensity (a.u.)
2,GTTGGGAGGAGGGCAAGGTGCTTAGGGTTTTACATTTCACCGGAGTCACCTAGTGCAG,10600 fluorescence intensity (a.u.)
3,TGATGTTGTATTCCGAGGAAGACCACCTTCAATTGCTTCACGGAGTCACCTAGTGCAG,8260 fluorescence intensity (a.u.)
4,CTCATCAGTGATGAGGCCTTCAACAATCCATCGTCTTACTCGGAGTCACCTAGTGCAG,8230 fluorescence intensity (a.u.)
5,GTCCACGTTGCCCATCTTCTCGTGTACTACTCTGGCTGGCCGGAGTCACCTAGTGCAG,8860 fluorescence intensity (a.u.)
6,TTCTCATCTCAATCCCATATTCCCATCCTTATCTTCGGTTCGGAGTCACCTAGTGCAG,8900 fluorescence intensity (a.u.)
7,CTTTGTTGCACTTTTTCGTATTGGAGTGTTTTATTCTTTCCGGAGTCACCTAGTGCAG,8760 fluorescence intensity (a.u.)
8,TTTATACCAAAGGCCATTTTCTGTTGCATTGAGTGGTTGCCGGAGTCACCTAGTGCAG,9400 fluorescence intensity (a.u.)
9,GCGCTAGAGTCCTTACTAAATTTTGCAGTTCTAGAAGCTTCGGAGTCACCTAGTGCAG,9350 fluorescence intensity (a.u.)
10,AAGCTATGATACATATTACTCTTTTACGGTTCTACTATAGCGGAGTCACCTAGTGCAG,8670 fluorescence intensity (a.u.)
11,ACTGTATCATCATTGATTTGTGTTGATGTTCTTACTTATACGGAGTCACCTAGTGCAG,8490 fluorescence intensity (a.u.)
12,TTCGTTCGTCCCACCGCTGCTGCATGCCATCCCTGACACCCGGAGTCACCTAGTGCAG,10100 fluorescence intensity (a.u.)
13,TCTTCGTAATGTTTTTCTCCTTCTCCATGTGGGCGCCCATCGGAGTCACCTAGTGCAG,9620 fluorescence intensity (a.u.)
14,GGAGTTGACTCATTTTCTTTATCTTCTTTCTACCCTTTTTCGGAGTCACCTAGTGCAG,10600 fluorescence intensity (a.u.)
15,ACTATTTCGCTATTTCAAGTCATTTTTATACTTTCCAATTCGGAGTCACCTAGTGCAG,10500 fluorescence intensity (a.u.)
16,GTGTTTTGACGCATGCATGCCGTTGGTCATCAGTTAATCACGGAGTCACCTAGTGCAG,8770 fluorescence intensity (a.u.)
17,CTTCTTGATACTGACTCACAATCTGTTCGAACAAACTCTCCGGAGTCACCTAGTGCAG,8610 fluorescence intensity (a.u.)
18,CCATGTCCGCCACAACTCGCAACATGTACTCCATACGTCCCGGAGTCACCTAGTGCAG,9290 fluorescence intensity (a.u.)
19,ATGTTGATATTGTGGTTGGTTGTGGGCATGTTACATTTTCCGGAGTCACCTAGTGCAG,11500 fluorescence intensity (a.u.)
20,GGGCAAGCATCCAACACTCTTAGTTCCCATTGCTCACATTCGGAGTCACCTAGTGCAG,12500 fluorescence intensity (a.u.)
21,GTGGGGATTGGGGATCGGAGAGAAGGGGAAATTTTGGACGCGGAGTCACCTAGTGCAG,9300 fluorescence intensity (a.u.)

# Rewritten tab-delimited: part of the list above.
row	Sequence	binding signal
12	TTCGTTCGTCCCACCGCTGCTGCATGCCATCCCTGACACCCGGAGTCACCTAGTGCAG	10100 fluorescence intensity (a.u.)
13	TCTTCGTAATGTTTTTCTCCTTCTCCATGTGGGCGCCCATCGGAGTCACCTAGTGCAG	9620 fluorescence intensity (a.u.)
14	GGAGTTGACTCATTTTCTTTATCTTCTTTCTACCCTTTTTCGGAGTCACCTAGTGCAG	10600 fluorescence intensity (a.u.)
15	ACTATTTCGCTATTTCAAGTCATTTTTATACTTTCCAATTCGGAGTCACCTAGTGCAG	10500 fluorescence intensity (a.u.)
16	GTGTTTTGACGCATGCATGCCGTTGGTCATCAGTTAATCACGGAGTCACCTAGTGCAG	8770 fluorescence intensity (a.u.)
